From PubChem BioAssay AID652054 (National Center for Advancing Translational Sciences (NCATS), 2013)
Among all 360,000 compounds or so, about 9,100 (2.5%) were called active. The inconclusive results got no clear call from the source; some entries with a clear call stand among them for comparison. Rule as the data show it: active = max response below about -50%; inconclusive = no clear call, values can overlap the other calls; inactive = above that.

Chains of the proteins cited; added tags and fusions are not shown.
UniProt P35462, whole entry, looked up: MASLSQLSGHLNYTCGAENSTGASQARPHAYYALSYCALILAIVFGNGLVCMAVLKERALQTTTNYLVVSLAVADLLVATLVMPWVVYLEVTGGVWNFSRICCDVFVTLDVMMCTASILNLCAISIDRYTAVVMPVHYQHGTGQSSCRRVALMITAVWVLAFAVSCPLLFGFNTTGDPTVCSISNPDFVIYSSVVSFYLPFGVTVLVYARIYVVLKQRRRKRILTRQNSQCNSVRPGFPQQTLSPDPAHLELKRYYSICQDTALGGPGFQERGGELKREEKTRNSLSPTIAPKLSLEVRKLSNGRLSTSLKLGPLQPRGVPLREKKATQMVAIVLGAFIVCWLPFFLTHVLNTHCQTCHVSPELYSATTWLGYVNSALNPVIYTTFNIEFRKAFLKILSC

Target: D(3) dopamine receptor (Homo sapiens) (UniProt P35462)
Assay: qHTS of D3 Dopamine Receptor Antagonist: qHTS
Conditions: D3R cells, DiscoveRx beta-arrestin luminescence, antagonist mode; active compounds read low
Method in brief: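 Cells expressing the human receptor were seeded at 1500 cells/well, incubated overnight at 37 degrees C in 5% CO2, then exposed to library compounds with dopamine controls for 90 minutes at 37 degrees C before luminescent detection.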
% is scaled to controls: 0 for no effect and ±100 for the full control effect.

Compound	max response, negative = inhibition
Cc1ccc(S(=O)(=O)Nc2cc(C(C(=O)OC(C)C)C(=O)C(F)(F)F)c(O)c3ccccc23)c(C)c1 (stereo not drawn)	inconclusive: -40.8%
O=[N+]([O-])c1ccc(-c2ccc(/C=N/O)o2)cc1	inactive: 19.6%
COc1ccc(-c2c(-c3ccccc3OC)sc3ccccc23)cc1C=O	active: -59.6%
Cn1cc(/C=N/NC(=O)c2ccccc2O)c2ccccc21	inactive: -3.06%
CCOc1ccc(S(=O)(=O)n2nc(C)c(S(=O)(=O)N3CCOCC3)c2C)cc1	inactive: 0.114%
Cc1nc(N2CCC(C)CC2)c2c(C)c(C(=O)Nc3ccccc3C(F)(F)F)sc2n1	inactive: 77.4%
COc1ccc(-n2c(=O)c3c4c(sc3n3c(=S)[nH]nc23)CCC4)cc1	inconclusive: -39.5%
COc1cccc(-c2ccc(NC(=O)C3CCCN(Cc4ccccn4)C3)cc2)c1 (stereo not drawn)	inactive: -13.6%
O=C(CCNC(=O)C1CCN(S(=O)(=O)c2ccc(F)cc2)CC1)NC1CC1	inactive: -26.9%
CC(C)CCNC(=O)c1cc2c(=O)n3ccccc3nc2s1	inconclusive: -41.2%
O=C(Nc1ccccc1Cl)c1cc(C2CCCN(C(=O)c3cccs3)C2)on1 (stereo not drawn)	inactive: 38%
CCOc1ccc(NC(=O)CN2CCc3cc4c(cc3C2)OCCCO4)cc1OCC	inactive: 10.2%
O=C(Cc1ccccc1)Nc1ccc(NC(=O)Cc2ccccc2)c(Cl)c1	inactive: 5.63%
CC1CCCN(C(=O)COC(=O)c2ccc[nH]c2=O)C1 (stereo not drawn)	inconclusive: -42.7%
O=C(O)CNC(=S)N(Cc1ccc(F)cc1)C1CCCCC1	inconclusive: -35.8%
COC(=O)c1ccc2c(=O)n(Cc3ccc(C(=O)NC4CCCC4)cc3)c(=S)[nH]c2c1	inactive: 0%
Cc1cccc(Cl)c1OCCCCn1ccnc1	inconclusive: -42%
CCNC(=O)C1(C)CCN(Cc2csc(-c3ccccc3)n2)C1 (stereo not drawn)	active: -113%
O=C(NC(=S)Nc1ccccc1N1CCCC1)c1ccc(-c2cccc([N+](=O)[O-])c2)o1	inconclusive: -32.1%
CC(C)(C)c1ccc(/C=N/NC(=O)C2CCCC2)cc1	inconclusive: -34.8%
CCC1CCc2sc(C(=O)N3CCCN(C)CC3)cc2C1 (stereo not drawn)	inconclusive: -43.3%
CN(C)S(=O)(=O)c1ccc(NC(=S)NC(=O)Cc2ccccc2)cc1	inconclusive: -38.5%

Compound	max response, negative = inhibition
COc1ccc(NS(=O)(=O)c2ccc(OC)c(NC(=O)CCC3CCCCC3)c2)cc1	inactive: -5.05%
COc1ccc(C(C(=O)NC2CCCC2)N(C(=O)c2ccoc2C)c2cc(C)cc(C)c2)cc1 (stereo not drawn)	inconclusive: -38.5%
O=C1c2ccccc2NC2(CCCCC2)N1N=C1CCCCC1	inactive: 7.03%
NCCCCCc1nnc(SC/C=C/c2ccccc2)o1	inactive: -8.83%
CC(=O)Nc1ccccc1-c1nnc(SCc2ccccc2Cl)[nH]c1=O	inconclusive: -33.6%
CC(C)Oc1ccc(OCCCN2CCCCCC2)cc1	active: -83.9%
COc1ccc(C(CNC(=O)c2ccc(OCC3CCCO3)cc2)N2CCOCC2)cc1 (stereo not drawn)	inconclusive: -35.3%
CCOc1ccc(NC(=O)C(=O)N/N=C\c2ccc(CNS(=O)(=O)c3ccccc3)o2)cc1	inactive: 22.8%
CCCCn1c(N)c(N(C)C(=O)CCCn2c(=O)oc3ccccc32)c(=O)[nH]c1=O	inactive: 0%
CCN(CC)CCCNC(=O)C1c2ccccc2C(=O)N(C)C1c1ccc(OC)cc1 (stereo not drawn)	active: -52%
C=C1CC(COc2cc(=O)oc3ccccc23)(c2ccccc2)OC1=O (stereo not drawn)	active: -114%
CCc1nc(SCC(=O)Nc2cc(C)on2)c2c(C)c(C)sc2n1	inconclusive: -34.2%
COCCCNC(=O)/C(C#N)=C/c1cccc(NC(=O)c2ccccc2Cl)c1	inactive: -13.8%
Cc1ccc(C(C)C)c(OCCCN(C)Cc2ccccc2)c1	active: -61.4%
CC(C)C[C@H]1CNC(=S)N1CC1CCCN1C[C@H](CC(C)C)N1C[C@H](CC(C)C)N(CC2CCCCCC2)C1=S (stereo partly drawn)	inconclusive: -49%
COc1cc(/C=N/n2c(C3CCCCC3)n[nH]c2=S)cc(OC)c1O	inconclusive: -32.2%
O=C(Nc1ccccc1)c1[nH]ncc1[N+](=O)[O-]	active: -63.1%
Cc1ccc(CN(C)C(=O)c2ccc(S(=O)(=O)N(C)c3ccccc3)cc2)o1	inactive: -0.748%
CC(C)(C)OC(=O)NC(CNCc1ccccc1)Cc1ccccc1 (stereo not drawn)	inconclusive: -38.6%
COc1ccccc1/C=C/CN1CCC(Oc2ccc(C(=O)N3CCCC3)cc2)CC1	active: -68.2%
COc1ccc(N(CC(=O)N2CCN(c3cc(C)ccc3C)CC2)S(=O)(=O)c2c(C)noc2C)cc1	inactive: -10.9%
CCOC(=O)c1ccc(Nc2nc(C)cc(C)n2)cc1	inactive: 18.3%

Compound	max response, negative = inhibition
CC(=O)N1N=C(c2cccc([N+](=O)[O-])c2)OC1c1ccc(Cl)cc1Cl (stereo not drawn)	inconclusive: -40.1%
COc1ccc(-c2c[n+](CC(=O)c3ccccc3)c3n2CCCCC3)cc1	active: -61%
O=C(CSc1ccc(Cl)cc1)c1ccco1	active: -74.4%
c1ccc2nc(-c3nc4ccccc4o3)ccc2c1	inconclusive: -38.5%
O=S(=O)(c1ccc(F)cc1)N1CCN(CCOc2ccccc2)CC1	inconclusive: -35.1%
N#Cc1ccc2c(=O)n(-c3ccccc3)sc2c1	inconclusive: -35.9%
CC(C)(C)c1ccc(CN2C3=NCCCN3c3ccccc32)cc1	active: -62.7%
CCOc1ccc(C2=[N+]([O-])C(C)(C)N(O)C2(C)C)cc1	inconclusive: -36.4%
COc1ccccc1C(=O)C1CCCN(C(=O)CCC(=O)c2ccccc2)C1 (stereo not drawn)	inconclusive: -36.4%
Cc1ccc(S(=O)(=O)Nc2nncs2)cc1	active: -59.7%
Cc1ccc(-c2[nH]c(=O)n3ccncc23)s1	inconclusive: -43.6%
Cc1ccsc1C(=O)OCC(=O)NC1CC1	inconclusive: -31.9%
C=CCn1c(Cc2c(C)[nH]c3ccccc23)nnc1SCC(=O)NCc1ccc(F)cc1	inconclusive: -30.4%
COc1ccc(N2CCN(C(=O)Cn3nnc(-c4ccc(OC)c(OC)c4)n3)CC2)cc1	inactive: 17.6%
Cc1cc(C)n2nc3nc(N4CCCCC4)nc(-c4ccco4)c3c2n1	inconclusive: -30.1%
CCOC(=O)c1ccc(NC(=O)c2nc(S(=O)(=O)Cc3ccccc3)ncc2Cl)cc1	inconclusive: -44.2%
COc1ccc(C(=O)N2CCCN(C)CC2)cc1S(=O)(=O)N(C)Cc1ccccc1	inconclusive: -41.1%
Cc1cccc(-n2c(-c3csc(C)c3)n[nH]c2=S)c1	inconclusive: -30.1%
CCC(C)NC(=O)c1ccccc1NC(=O)C(C)N(c1ccccc1)S(C)(=O)=O (stereo not drawn)	inactive: 6.85%
CCN1C(=O)/C(=C\c2cccs2)C(C(=O)OC)=C1C	inconclusive: -38.6%
O=C(NCC1(c2ccccc2)CCCC1)C1(c2ccccc2)CCCC1	inconclusive: -36.1%
COCc1cc(C)nc(N2CCN(Cc3ccccc3)CC2)c1C#N	active: -89.5%

Compound	max response, negative = inhibition
CCOP(=O)(OCC)/C(=N/OC(=O)c1ccccc1C)C(N)=O	inconclusive: -46.8%
COc1ccccc1-c1n[nH]c(=S)n1-c1ccccc1	inconclusive: -45.3%
Cc1cc2ccccn2c1C(=O)c1ccc(Cl)c([N+](=O)[O-])c1	inconclusive: -31.3%
COc1ccc(-c2noc(C(C)NC(=O)c3ccco3)n2)cc1OC (stereo not drawn)	inactive: -10.7%
COc1ccc(OC)c(C2C=C(C34CC5CC(CC(C5)C3)C4)NC(=S)N2)c1 (stereo not drawn)	inconclusive: -47.3%
COC(=O)CN1C(=O)S/C(=C/c2ccc(N3CCCCC3)o2)C1=O	inconclusive: -35.6%
Cc1cc(C)c(C(=O)COC(=O)c2c(C)noc2C)cc1C	inactive: 2.16%
C=C(C)COc1ccc(-c2[nH]ncc2Oc2ccccc2OC)c(O)c1	inconclusive: -37.7%
CC(=O)Oc1ccccc1Cn1c(C)c(C(=O)NCc2cccc(Cl)c2)sc1=O	inconclusive: -33.5%
O=C(Nc1ccc(N2CCOCC2)cc1N1CCOCC1)c1ccc(F)cc1	inconclusive: -45.9%
CCOC(=O)c1cc2cc(OC)ccc2n1C1CCN(C)CC1	active: -92.9%
CC(C)=CCC/C(C)=C/CNC(=O)CC1C[C@H](C(=O)N2CCCCC2)[C@@]2(C)c3[nH]c4ccccc4c3CCN2C1=O (stereo partly drawn)	inconclusive: -30.9%
Cc1ccc(C(=O)C2CCNCC2)cc1	active: -64.8%
COc1ccc(C2=Nc3ccccc3N(C(=O)c3ccc4c(c3)OCO4)C2C(=O)NCc2ccccc2)cc1 (stereo not drawn)	inconclusive: -42.4%
O=c1c2c(nc3c(-c4cccc5ccccc45)c[nH]n13)CCC2	inconclusive: -36.1%
OC1c2cc(Br)ccc2N=C2CCCCCN21 (stereo not drawn)	inactive: -21.3%
C=CCOC(=O)C1=C(C)Nc2nc3ccccc3n2C1c1ccncc1 (stereo not drawn)	inconclusive: -47%
Cc1cc(OCCn2cnc3ccccc3c2=O)ccc1[N+](=O)[O-]	inconclusive: -30.9%
Cc1ccc(-c2nnc(Nc3ccc4c(c3)nc(C)n4C)c3ccccc23)cc1	inconclusive: -38.9%
CSc1ccc(S(=O)(=O)NCC(=O)OCC(=O)N(C)C2CCCCC2)cc1[N+](=O)[O-]	inactive: 13.4%
CC1CCCC(NC(=O)C2N(CCCN3CCCC3)C(=O)C3C(C(=O)Nc4cccc(Cl)c4)C4C=CC32O4)C1C (stereo not drawn)	inconclusive: -31.6%
CCN(CC)c1ccc(NC(=S)NC(=O)Cc2ccccc2)cc1	inconclusive: -44.1%
